These results are taken from PMC7819943, “Rice protein-binding microarrays: a tool to detect cis-acting elements near promoter regions in rice”.

The list shows a part of the results.

In the assay the target is T1, OsSMF1 (Oryza sativa, UniProt Q6ZLB0 1-436).
T1 sequence: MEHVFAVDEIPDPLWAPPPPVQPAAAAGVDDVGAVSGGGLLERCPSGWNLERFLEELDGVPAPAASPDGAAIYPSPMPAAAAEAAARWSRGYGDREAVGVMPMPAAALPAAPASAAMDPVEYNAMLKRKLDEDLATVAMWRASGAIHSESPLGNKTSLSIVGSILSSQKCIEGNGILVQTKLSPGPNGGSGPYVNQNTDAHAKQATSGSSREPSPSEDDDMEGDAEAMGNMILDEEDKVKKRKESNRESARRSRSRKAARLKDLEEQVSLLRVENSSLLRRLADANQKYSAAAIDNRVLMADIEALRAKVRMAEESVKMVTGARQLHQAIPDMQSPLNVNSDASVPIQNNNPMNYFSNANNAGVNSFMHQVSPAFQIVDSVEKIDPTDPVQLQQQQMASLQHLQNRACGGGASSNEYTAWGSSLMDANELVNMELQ
The assay is described as follows: protein-binding microarray (RPBM); PBS, 2% BSA, 51.3 ng/ul salmon testes DNA, 50 uM zinc acetate, 200 nM TF, 25 C, 1 h; high values mean tight binding. The note with it: protein: recombinant; tags: N-terminal polyhistidine and DsRed monomer fusion (pET32a); chain copies: 2; label: CyDye5-dUTP incorporated in the synthesized complementary strand; 3' TTTTT single-stranded linker to array surface; dsDNA, one strand shown. The method, boiled down:
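The binding signal for each feature is its fluorescence intensity in arbitrary units. An Axon 4000B scanner was used to read a custom Agilent array that had been made double-stranded with Cy5-dUTP primer extension, blocked with 2% BSA, incubated at 25 °C for 1 h with 200 nM protein in PBS, 2% BSA, salmon testes DNA and 50 µM zinc acetate, and washed. The protein was an N-terminal polyhistidine–DsRed transcription factor fusion from E. coli BL21-CodonPlus, purified on Ni–NTA.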
Take “ACATCTCACATGATGAGGATGAGTCGTCGTCGTTTGCAATCGGAGTCACCTAGTGCAG”: the binding signal was 3570 fluorescence intensity (a.u.).

As to “CAGTAACCACGTCCTCTAACTTTACGTCAGATGATCTCAACGGAGTCACCTAGTGCAG”, the binding signal is 4790 fluorescence intensity (a.u.).

Take “TGCTGCCCCGCCAACATCGTGTTGAATCTCGTCGATATATCGGAGTCACCTAGTGCAG”: the binding signal was 3510 fluorescence intensity (a.u.).

For the sequence “AACTTAAAAGCCAACTTAAACACGTATGATGTATCACAGTCGGAGTCACCTAGTGCAG”, the binding signal is 6920 fluorescence intensity (a.u.).

“CGCTCCCGCTACCCCACCACACGCGTCATGAGGCATCCAGCGGAGTCACCTAGTGCAG”: the binding signal is 4440 fluorescence intensity (a.u.).

As to “AGGAGATGGGGCGCTGGCCACGTGGAACCCCGCGCGCTTTCGGAGTCACCTAGTGCAG”, the binding signal is 8060 fluorescence intensity (a.u.).

Regarding “GGGAGTTCATACTTAAACATGTAGTTTGTACTATTTATCTCGGAGTCACCTAGTGCAG”, the binding signal was 5080 fluorescence intensity (a.u.).

As for “TAGGCGGGGTCCATGCGGGTCCCATACTGACTCAGCCGCCCGGAGTCACCTAGTGCAG”, the binding signal was 8670 fluorescence intensity (a.u.).

Regarding “CCAAATCAAATTGCCACGTCAATGCCACATCGATGCCACACGGAGTCACCTAGTGCAG”, the binding signal is 19700 fluorescence intensity (a.u.).

Take “TCTCTCTTTCTGATGACTACACTTATTTGTTCTGATATCACGGAGTCACCTAGTGCAG”: the binding signal is 3180 fluorescence intensity (a.u.).

For “AGCAGCGGAGAGATGATGACAACGTACGGCGATGGTGGAACGGAGTCACCTAGTGCAG”, the binding signal was 3400 fluorescence intensity (a.u.).

Turning to “CCTGATCGCCTCCTCCGCCACCGCCGTGTTCGATTCGTCTCGGAGTCACCTAGTGCAG”, the binding signal is 3260 fluorescence intensity (a.u.).

Take “TTATCTTGGTGTCATACAGGTTATAATCGAAAGATCTATGCGGAGTCACCTAGTGCAG”: the binding signal is 3470 fluorescence intensity (a.u.).

On to “GATGGAGAATTGAGGAAGGAACTCCTTTCTTTTCAATACCCGGAGTCACCTAGTGCAG”, for which the binding signal is 3400 fluorescence intensity (a.u.).

On to “TTTTGGCACGAAGCAATGAAGCACGATGGGCCGTACGGCCCGGAGTCACCTAGTGCAG”, for which the binding signal is 25500 fluorescence intensity (a.u.).

For “TCCGTAGGAGTACTTGGCAGTTGGCTATACTCGCTTCATCCGGAGTCACCTAGTGCAG”, the binding signal is 3300 fluorescence intensity (a.u.).

On to “CGTTGGACACGGATATCCACGATTGCACTTATTTTGAGACCGGAGTCACCTAGTGCAG”, for which the binding signal was 3440 fluorescence intensity (a.u.).

As for “GTCCACCCGTTTATTGCATGTCAATTAGATGATTACGAAACGGAGTCACCTAGTGCAG”, the binding signal was 3720 fluorescence intensity (a.u.).

Consider “TGTACAATGCTCGCTGACAGGTGGGCCCACCACCACCACGCGGAGTCACCTAGTGCAG”, for which the binding signal was 4100 fluorescence intensity (a.u.).

“CAAAGAAAATTCTGCATTGCATTCCCGTCGTCCGTTCTAACGGAGTCACCTAGTGCAG”: the binding signal was 3880 fluorescence intensity (a.u.).

Regarding “AGATTTGCAATATATACTTACTGTCTTACTCACTGCATTTCGGAGTCACCTAGTGCAG”, the binding signal is 3180 fluorescence intensity (a.u.).

Regarding “ACTCTACTCGGCGCGCGCGCGCGTCCCCATATCGTCACAACGGAGTCACCTAGTGCAG”, the binding signal was 3250 fluorescence intensity (a.u.).

As for “TATTGAATGAATTAGCTATAGATGATTTGGAGGTAGGATTCGGAGTCACCTAGTGCAG”, the binding signal is 3330 fluorescence intensity (a.u.).

In the case of “ATGAGTGTGAGTGTGGCATGCGTGCATGTGTAATAGTAAACGGAGTCACCTAGTGCAG”, the binding signal is 3480 fluorescence intensity (a.u.).

With “GCCGGATCCGCCACCATGCGCCTTGCCGCCGCACGGCCTTCGGAGTCACCTAGTGCAG”, the binding signal is 3380 fluorescence intensity (a.u.).

Turning to “TACCATCGCACAACCAACAAGCTTACGTACCGTAGCTCACCGGAGTCACCTAGTGCAG”, the binding signal was 3520 fluorescence intensity (a.u.).

As for “CCGGAAGAGGCCGGTGAGGAAGTCGAACAGCTGGGGCTCGCGGAGTCACCTAGTGCAG”, the binding signal was 4830 fluorescence intensity (a.u.).

Turning to “GTTCGTGTCGATTTGACTGTGCGTGTCTCTTATGGAGTTTCGGAGTCACCTAGTGCAG”, the binding signal was 3730 fluorescence intensity (a.u.).

For “GCTGACACGCCGCTTCACCTCTCCACGTCTCCACGCCGTCCGGAGTCACCTAGTGCAG”, the binding signal is 3910 fluorescence intensity (a.u.).

On to “TAGAACGAGCCGTTCACCGCCGTGACGCACGGGTGCATGCCGGAGTCACCTAGTGCAG”, for which the binding signal is 4370 fluorescence intensity (a.u.).

Turning to “GGTGCGACGCGAGACGCCGCGCCACGCGTTGTTTCAGGGACGGAGTCACCTAGTGCAG”, the binding signal is 4210 fluorescence intensity (a.u.).

With “TGTGAGCACGGATCGACGATGAAAACAGACGAAGAACATTCGGAGTCACCTAGTGCAG”, the binding signal was 27400 fluorescence intensity (a.u.).

For “TTTAAATGCCTTCGTTACCTTTACTCCGAGTGACATTCATCGGAGTCACCTAGTGCAG”, the binding signal was 3700 fluorescence intensity (a.u.).

In the case of “CGTCCCAAAATATAACCACGTAGGATAAAATGAGGCCTATCGGAGTCACCTAGTGCAG”, the binding signal is 4310 fluorescence intensity (a.u.).

For the sequence “GCCACACCTATCTCAATGACATGTGGGTCCACATGTGTCTCGGAGTCACCTAGTGCAG”, the binding signal is 3400 fluorescence intensity (a.u.).

“ATTTTCGTGTGCAGTATATGTGTTCCCAACCCTGAGAGCCCGGAGTCACCTAGTGCAG”: the binding signal was 3620 fluorescence intensity (a.u.).

Turning to “TCTATAAATATGATGTGGCTATGTACTCAGTACTCACCTGCGGAGTCACCTAGTGCAG”, the binding signal is 6690 fluorescence intensity (a.u.).

Consider “GTTCGCTTTTGTAAATAAAGATATGTGTTTGAGTCAGCTTCGGAGTCACCTAGTGCAG”, for which the binding signal is 5340 fluorescence intensity (a.u.).

As for “TGGAGATGGCGGGGCTGTCCACGTGCAAGGGCCGGCGCGTCGGAGTCACCTAGTGCAG”, the binding signal was 4350 fluorescence intensity (a.u.).

Take “TGTATTTCTGCATCACTTTCTATTTCATATTCTTCATTCCCGGAGTCACCTAGTGCAG”: the binding signal was 3160 fluorescence intensity (a.u.).

As to “GCCACTGAATGTTCAGAGATGATTTGCAAATTGCAACCGCCGGAGTCACCTAGTGCAG”, the binding signal is 27800 fluorescence intensity (a.u.).

In the case of “TGGATATGCATGCGTACGTACGTAGCTTACCTATAGCTAGCGGAGTCACCTAGTGCAG”, the binding signal was 3500 fluorescence intensity (a.u.).
